# Experimental data from the supplement of paper PMC4840960.
# Counter-ions that a name gives are not always drawn. Some of the results follow. Baselines shift from plate to plate; read single values as rough.
# System: E18 rat cortical neuron-glia co-culture
# Test: total nuclei (DAPI) / Olig2+ nuclei (ratio); higher = more depletion of OPC/OL lineage cells
# Details: 1 µM; treatment time: 8 days (DIV5-DIV13)
# Experimental: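 Primary E18 rat cortical co-cultures (neurons, astrocytes, OPC/OLs) in 96-well plates. NIH Clinical Collection compounds were added on DIV5 in myelination medium at 5 and 1 µM for 8 days, then cells were fixed on DIV13 and stained for MBP, Olig2 and DAPI. Myelination (contiguous aligned MBP fiber length per Olig2+ nucleus) was normalised to plate controls (0.1% DMSO = 0, 1 µM DAPT = 100) as % of DAPT. Each value is from duplicate wells with 4 image fields each. Fiber length/MBP is the fiber score divided by the MBP differentiation score; DAPI/Olig2 is the ratio of total to Olig2+ nuclei.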
row,SMILES,total nuclei
1,COc1ccc2c(c1)[C@]13CCCC[C@@H]1[C@H](C2)N(C)CC3 [Dextromethorphan],3.11
2,NC(=O)OCCCc1ccccc1 [Phenprobamate],2.89
3,Oc1ccc2c3c1O[C@H]1c4[nH]c5ccccc5c4C[C@@]4(O)[C@@H](C2)N(CC2CC2)CC[C@]314 [Naltrindole],4
4,C[C@]12CC[C@H](O)CC1=CC[C@@H]1[C@@H]2CC[C@@]2(C)[C@H]1CC[C@]2(C)O [Methandriol],2.92
5,O=C1CC[C@@]2(O)[C@H]3Cc4ccc(O)c5c4[C@@]2(CCN3CC2CC2)[C@H]1O5 [Naltrexone],4.45
6,COc1cc2c(cc1OC)[C@@]13CCN4CC5=CCO[C@H]6CC(=O)N2[C@H]1[C@H]6[C@H]5C[C@H]43 [Brucine],2.73
7,CNC(=O)Oc1ccc2c(c1)[C@]1(C)CCN(C)[C@@H]1N2C [Physostigmine],2.72
8,COc1cc([C@@H]2c3cc4c(cc3[C@H](O)[C@H]3COC(=O)[C@H]23)OCO4)cc(OC)c1OC [Podophyllotoxin],3.95
9,CN1[C@@H]2C[C@@H](OC(=O)[C@H](CO)c3ccccc3)C[C@H]1[C@@H]1O[C@@H]12 [Scopolamine hydrobromide],5.3
10,O=C1CN=C(c2ccccc2)c2cc([N+](=O)[O-])ccc2N1 [Nitrazepam],3.21
11,NCCc1ccccn1 [2-(2-aminoethyl)pyridine],2.54
12,C[C@]12CC[C@H](O)CC1=CC[C@@H]1[C@@H]2CC[C@]2(C)C(=O)CC[C@@H]12 [Dehydroepiandrosterone],3.87
13,Cc1ccc(-c2nc3ccc(C)cn3c2CC(=O)N(C)C)cc1 [Zolpidem],2.92
14,COc1ccc(C(CN(C)C)C2(O)CCCCC2)cc1 (stereo not given) [Venlafaxine],2.9
15,CC(C)[C@]12O[C@H]1[C@@H]1O[C@]13[C@]1(O[C@H]1C[C@H]1C4=C(CC[C@@]13C)C(=O)OC4)[C@@H]2O [Triptolide],> 40
16,CCCCC/C=C\C/C=C\C/C=C\C/C=C\CCCC(=O)Nc1ccc(O)cc1,8.92
17,C=CCN1CC[C@]23c4c5ccc(O)c4O[C@H]2C(=O)CC[C@@]3(O)[C@H]1C5 [Naloxone],2.87
18,C[C@]12CCC(=O)C[C@@H]1CC[C@@H]1[C@@H]2CC[C@@]2(C)[C@H]1CC[C@]2(C)O [Mestanolone],3.47
19,NC1=NC(=O)C(c2ccccc2)O1 (stereo not given) [Pemoline],3.35
20,C[C@]12CC[C@H]3[C@@H](CCC4=CC(=O)CC[C@@H]43)[C@@H]1CC[C@@H]2O [Nandrolone],5.1

# Same assay, conditions: 5 µM; treatment time: 8 days (DIV5-DIV13)
row,SMILES,total nuclei
1,COc1ccc2c(c1)[C@]13CCCC[C@@H]1[C@H](C2)N(C)CC3 [Dextromethorphan],3.2
2,NC(=O)OCCCc1ccccc1 [Phenprobamate],3
3,Oc1ccc2c3c1O[C@H]1c4[nH]c5ccccc5c4C[C@@]4(O)[C@@H](C2)N(CC2CC2)CC[C@]314 [Naltrindole],4.2
4,C[C@]12CC[C@H](O)CC1=CC[C@@H]1[C@@H]2CC[C@@]2(C)[C@H]1CC[C@]2(C)O [Methandriol],2.9
5,O=C1CC[C@@]2(O)[C@H]3Cc4ccc(O)c5c4[C@@]2(CCN3CC2CC2)[C@H]1O5 [Naltrexone],4.2
6,COc1cc2c(cc1OC)[C@@]13CCN4CC5=CCO[C@H]6CC(=O)N2[C@H]1[C@H]6[C@H]5C[C@H]43 [Brucine],3.1
7,CNC(=O)Oc1ccc2c(c1)[C@]1(C)CCN(C)[C@@H]1N2C [Physostigmine],2.6
8,COc1cc([C@@H]2c3cc4c(cc3[C@H](O)[C@H]3COC(=O)[C@H]23)OCO4)cc(OC)c1OC [Podophyllotoxin],3.9
9,CN1[C@@H]2C[C@@H](OC(=O)[C@H](CO)c3ccccc3)C[C@H]1[C@@H]1O[C@@H]12 [Scopolamine hydrobromide],5
10,O=C1CN=C(c2ccccc2)c2cc([N+](=O)[O-])ccc2N1 [Nitrazepam],3.3
11,NCCc1ccccn1 [2-(2-aminoethyl)pyridine],2.6
12,C[C@]12CC[C@H](O)CC1=CC[C@@H]1[C@@H]2CC[C@]2(C)C(=O)CC[C@@H]12 [Dehydroepiandrosterone],3.9
13,Cc1ccc(-c2nc3ccc(C)cn3c2CC(=O)N(C)C)cc1 [Zolpidem],3
14,COc1ccc(C(CN(C)C)C2(O)CCCCC2)cc1 (stereo not given) [Venlafaxine],2.9
15,CC(C)[C@]12O[C@H]1[C@@H]1O[C@]13[C@]1(O[C@H]1C[C@H]1C4=C(CC[C@@]13C)C(=O)OC4)[C@@H]2O [Triptolide],> 40
16,CCCCC/C=C\C/C=C\C/C=C\C/C=C\CCCC(=O)Nc1ccc(O)cc1,8
17,C=CCN1CC[C@]23c4c5ccc(O)c4O[C@H]2C(=O)CC[C@@]3(O)[C@H]1C5 [Naloxone],2.8
18,C[C@]12CCC(=O)C[C@@H]1CC[C@@H]1[C@@H]2CC[C@@]2(C)[C@H]1CC[C@]2(C)O [Mestanolone],3.9
19,NC1=NC(=O)C(c2ccccc2)O1 (stereo not given) [Pemoline],4
20,C[C@]12CC[C@H]3[C@@H](CCC4=CC(=O)CC[C@@H]43)[C@@H]1CC[C@@H]2O [Nandrolone],4.9
